Results on 34 targets are retold here after the supplement of paper PMC12067093, “Discovery and optimisation of a covalent ligand for TRIM25 and its application to targeted protein ubiquitination” (Chemical Science, 2025).

Chains of the proteins cited; added tags and fusions are not shown. Lines headed by an entry give the natural chain unless they say otherwise; changes in a name come on top.
UniProt Q9H6S0: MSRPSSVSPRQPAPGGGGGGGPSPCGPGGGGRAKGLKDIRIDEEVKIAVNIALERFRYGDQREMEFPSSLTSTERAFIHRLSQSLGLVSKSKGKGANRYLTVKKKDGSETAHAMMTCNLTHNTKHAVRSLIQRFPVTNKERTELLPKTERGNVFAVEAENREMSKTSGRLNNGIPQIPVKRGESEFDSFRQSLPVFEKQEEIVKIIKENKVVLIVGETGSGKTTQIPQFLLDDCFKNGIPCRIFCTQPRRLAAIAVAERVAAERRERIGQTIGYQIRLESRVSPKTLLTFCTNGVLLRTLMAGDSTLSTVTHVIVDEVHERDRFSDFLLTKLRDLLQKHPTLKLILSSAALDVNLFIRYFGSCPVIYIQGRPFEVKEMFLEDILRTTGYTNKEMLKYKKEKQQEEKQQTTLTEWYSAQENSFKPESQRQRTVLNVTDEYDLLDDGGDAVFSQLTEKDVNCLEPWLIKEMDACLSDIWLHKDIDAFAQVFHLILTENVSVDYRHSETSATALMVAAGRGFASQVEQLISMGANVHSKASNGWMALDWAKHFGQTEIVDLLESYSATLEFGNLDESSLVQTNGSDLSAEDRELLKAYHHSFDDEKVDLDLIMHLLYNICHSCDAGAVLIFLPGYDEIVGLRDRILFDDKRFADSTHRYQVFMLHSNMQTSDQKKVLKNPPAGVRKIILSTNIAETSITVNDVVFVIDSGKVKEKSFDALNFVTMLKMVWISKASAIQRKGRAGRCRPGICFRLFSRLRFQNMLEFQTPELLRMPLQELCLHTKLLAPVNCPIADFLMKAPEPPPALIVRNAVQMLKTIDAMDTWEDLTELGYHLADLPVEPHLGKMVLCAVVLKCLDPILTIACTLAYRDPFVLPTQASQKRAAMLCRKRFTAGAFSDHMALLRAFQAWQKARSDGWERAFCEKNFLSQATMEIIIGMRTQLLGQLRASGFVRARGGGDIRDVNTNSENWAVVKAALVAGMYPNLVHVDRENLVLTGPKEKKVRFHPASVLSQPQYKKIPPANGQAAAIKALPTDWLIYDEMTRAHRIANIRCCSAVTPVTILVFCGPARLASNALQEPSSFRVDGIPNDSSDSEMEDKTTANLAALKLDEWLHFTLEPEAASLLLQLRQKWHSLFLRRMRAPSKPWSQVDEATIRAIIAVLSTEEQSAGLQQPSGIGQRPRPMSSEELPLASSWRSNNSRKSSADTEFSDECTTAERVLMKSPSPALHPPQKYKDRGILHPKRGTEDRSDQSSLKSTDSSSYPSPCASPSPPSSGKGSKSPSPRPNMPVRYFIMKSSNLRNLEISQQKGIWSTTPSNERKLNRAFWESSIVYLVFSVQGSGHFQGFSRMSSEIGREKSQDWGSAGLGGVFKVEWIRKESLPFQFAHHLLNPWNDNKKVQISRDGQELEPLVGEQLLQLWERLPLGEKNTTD
UniProt O43829: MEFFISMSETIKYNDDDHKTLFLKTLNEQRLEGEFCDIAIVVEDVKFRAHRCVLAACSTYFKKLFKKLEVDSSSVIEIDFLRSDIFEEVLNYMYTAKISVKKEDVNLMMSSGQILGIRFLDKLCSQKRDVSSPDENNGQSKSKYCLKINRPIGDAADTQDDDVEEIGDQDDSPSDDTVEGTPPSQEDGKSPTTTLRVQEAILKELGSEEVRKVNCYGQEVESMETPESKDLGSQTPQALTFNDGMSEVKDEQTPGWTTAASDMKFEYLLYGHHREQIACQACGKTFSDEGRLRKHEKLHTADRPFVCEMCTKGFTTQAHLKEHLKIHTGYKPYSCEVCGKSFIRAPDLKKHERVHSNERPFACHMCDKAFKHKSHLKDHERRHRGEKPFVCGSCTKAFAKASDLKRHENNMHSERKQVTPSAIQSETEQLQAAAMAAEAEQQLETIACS
UniProt O43592: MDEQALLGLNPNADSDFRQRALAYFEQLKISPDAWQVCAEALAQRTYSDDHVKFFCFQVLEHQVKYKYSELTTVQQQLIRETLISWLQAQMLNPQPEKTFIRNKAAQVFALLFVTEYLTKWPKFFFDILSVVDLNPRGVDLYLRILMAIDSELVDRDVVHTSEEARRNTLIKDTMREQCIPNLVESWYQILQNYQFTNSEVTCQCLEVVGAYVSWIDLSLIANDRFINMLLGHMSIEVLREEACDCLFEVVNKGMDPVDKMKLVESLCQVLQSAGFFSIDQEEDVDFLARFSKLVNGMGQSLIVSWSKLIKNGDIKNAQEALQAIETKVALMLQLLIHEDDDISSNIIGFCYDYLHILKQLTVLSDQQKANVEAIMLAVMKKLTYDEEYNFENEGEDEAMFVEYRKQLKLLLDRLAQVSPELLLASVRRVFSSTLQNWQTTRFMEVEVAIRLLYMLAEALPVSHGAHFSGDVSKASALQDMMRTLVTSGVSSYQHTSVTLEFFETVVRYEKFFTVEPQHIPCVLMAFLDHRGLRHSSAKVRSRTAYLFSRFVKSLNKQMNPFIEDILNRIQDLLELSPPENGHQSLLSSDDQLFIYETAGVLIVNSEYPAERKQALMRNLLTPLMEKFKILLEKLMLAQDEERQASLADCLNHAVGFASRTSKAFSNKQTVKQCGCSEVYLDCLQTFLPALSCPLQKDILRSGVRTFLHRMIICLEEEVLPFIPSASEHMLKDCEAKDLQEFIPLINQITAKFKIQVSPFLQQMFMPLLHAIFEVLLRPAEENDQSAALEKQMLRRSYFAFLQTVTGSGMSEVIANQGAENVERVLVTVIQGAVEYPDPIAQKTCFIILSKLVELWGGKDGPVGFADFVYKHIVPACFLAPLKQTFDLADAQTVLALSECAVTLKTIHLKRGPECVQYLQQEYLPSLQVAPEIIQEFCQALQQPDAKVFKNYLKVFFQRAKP
UniProt Q9Y5A9: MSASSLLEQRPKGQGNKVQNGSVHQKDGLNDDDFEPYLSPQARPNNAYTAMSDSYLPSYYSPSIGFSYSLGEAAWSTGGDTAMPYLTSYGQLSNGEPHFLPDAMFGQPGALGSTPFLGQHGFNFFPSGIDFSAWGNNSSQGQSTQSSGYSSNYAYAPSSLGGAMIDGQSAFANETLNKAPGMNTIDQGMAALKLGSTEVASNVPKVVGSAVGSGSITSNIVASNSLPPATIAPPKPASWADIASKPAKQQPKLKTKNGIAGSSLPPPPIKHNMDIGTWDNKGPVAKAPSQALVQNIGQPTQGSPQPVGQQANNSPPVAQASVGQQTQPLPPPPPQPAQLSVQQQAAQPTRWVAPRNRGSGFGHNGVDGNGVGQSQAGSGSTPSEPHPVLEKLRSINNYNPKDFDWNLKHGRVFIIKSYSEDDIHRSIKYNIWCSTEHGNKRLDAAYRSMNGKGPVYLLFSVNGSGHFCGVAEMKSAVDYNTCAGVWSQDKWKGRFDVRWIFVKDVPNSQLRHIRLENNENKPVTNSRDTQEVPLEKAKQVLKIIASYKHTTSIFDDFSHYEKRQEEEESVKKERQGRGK
UniProt Q96H79: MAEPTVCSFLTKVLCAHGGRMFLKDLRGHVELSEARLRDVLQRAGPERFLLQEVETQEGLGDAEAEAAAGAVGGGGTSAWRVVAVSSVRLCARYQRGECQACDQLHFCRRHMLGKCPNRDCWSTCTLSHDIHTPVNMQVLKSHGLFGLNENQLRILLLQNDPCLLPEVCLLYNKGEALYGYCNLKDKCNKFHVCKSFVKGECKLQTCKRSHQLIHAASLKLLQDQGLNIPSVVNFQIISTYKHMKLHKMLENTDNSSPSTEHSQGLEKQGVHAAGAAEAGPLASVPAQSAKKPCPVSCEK
UniProt Q04917: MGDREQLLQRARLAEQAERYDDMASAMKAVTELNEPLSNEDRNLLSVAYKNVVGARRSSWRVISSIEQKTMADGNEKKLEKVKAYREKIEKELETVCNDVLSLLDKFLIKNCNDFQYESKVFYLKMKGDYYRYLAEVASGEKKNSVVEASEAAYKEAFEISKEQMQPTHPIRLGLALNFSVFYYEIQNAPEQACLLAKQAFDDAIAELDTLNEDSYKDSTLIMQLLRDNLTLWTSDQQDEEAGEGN
UniProt O15498: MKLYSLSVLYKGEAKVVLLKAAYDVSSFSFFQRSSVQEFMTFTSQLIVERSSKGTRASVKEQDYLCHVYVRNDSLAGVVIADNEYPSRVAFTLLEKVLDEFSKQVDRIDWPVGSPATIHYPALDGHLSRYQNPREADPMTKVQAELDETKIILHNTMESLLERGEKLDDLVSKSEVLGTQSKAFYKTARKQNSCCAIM
UniProt Q7Z2W4: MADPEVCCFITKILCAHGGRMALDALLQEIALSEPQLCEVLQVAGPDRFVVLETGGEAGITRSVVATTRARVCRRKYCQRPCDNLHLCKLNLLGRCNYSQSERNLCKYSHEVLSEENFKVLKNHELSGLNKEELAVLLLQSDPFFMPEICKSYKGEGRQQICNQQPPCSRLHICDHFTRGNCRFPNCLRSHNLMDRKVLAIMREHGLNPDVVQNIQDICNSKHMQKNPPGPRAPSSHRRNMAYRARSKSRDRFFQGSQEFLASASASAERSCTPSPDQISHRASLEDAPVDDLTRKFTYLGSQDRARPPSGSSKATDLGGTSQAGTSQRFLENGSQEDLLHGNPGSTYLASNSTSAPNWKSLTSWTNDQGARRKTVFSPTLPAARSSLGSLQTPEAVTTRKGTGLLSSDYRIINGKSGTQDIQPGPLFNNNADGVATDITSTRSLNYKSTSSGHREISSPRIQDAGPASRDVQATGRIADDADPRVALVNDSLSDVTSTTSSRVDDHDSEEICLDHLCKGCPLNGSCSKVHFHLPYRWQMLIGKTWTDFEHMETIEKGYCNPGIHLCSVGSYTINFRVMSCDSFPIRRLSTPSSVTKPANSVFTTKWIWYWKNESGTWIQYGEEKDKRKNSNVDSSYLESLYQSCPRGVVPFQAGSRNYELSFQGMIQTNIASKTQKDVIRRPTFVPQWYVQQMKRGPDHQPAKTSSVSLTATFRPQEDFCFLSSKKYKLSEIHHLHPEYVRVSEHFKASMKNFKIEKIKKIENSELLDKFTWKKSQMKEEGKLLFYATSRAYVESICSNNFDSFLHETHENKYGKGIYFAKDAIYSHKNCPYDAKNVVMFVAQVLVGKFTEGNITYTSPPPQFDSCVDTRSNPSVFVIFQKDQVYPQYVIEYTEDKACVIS
UniProt Q8TCF1: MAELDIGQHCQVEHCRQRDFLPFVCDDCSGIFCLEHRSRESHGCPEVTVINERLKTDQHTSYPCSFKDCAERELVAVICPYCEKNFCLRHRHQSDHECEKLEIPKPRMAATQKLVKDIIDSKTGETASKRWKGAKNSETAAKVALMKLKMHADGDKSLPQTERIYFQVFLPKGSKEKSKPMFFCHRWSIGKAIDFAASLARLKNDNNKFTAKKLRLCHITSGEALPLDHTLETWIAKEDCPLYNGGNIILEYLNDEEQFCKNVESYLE
UniProt Q9HAV4: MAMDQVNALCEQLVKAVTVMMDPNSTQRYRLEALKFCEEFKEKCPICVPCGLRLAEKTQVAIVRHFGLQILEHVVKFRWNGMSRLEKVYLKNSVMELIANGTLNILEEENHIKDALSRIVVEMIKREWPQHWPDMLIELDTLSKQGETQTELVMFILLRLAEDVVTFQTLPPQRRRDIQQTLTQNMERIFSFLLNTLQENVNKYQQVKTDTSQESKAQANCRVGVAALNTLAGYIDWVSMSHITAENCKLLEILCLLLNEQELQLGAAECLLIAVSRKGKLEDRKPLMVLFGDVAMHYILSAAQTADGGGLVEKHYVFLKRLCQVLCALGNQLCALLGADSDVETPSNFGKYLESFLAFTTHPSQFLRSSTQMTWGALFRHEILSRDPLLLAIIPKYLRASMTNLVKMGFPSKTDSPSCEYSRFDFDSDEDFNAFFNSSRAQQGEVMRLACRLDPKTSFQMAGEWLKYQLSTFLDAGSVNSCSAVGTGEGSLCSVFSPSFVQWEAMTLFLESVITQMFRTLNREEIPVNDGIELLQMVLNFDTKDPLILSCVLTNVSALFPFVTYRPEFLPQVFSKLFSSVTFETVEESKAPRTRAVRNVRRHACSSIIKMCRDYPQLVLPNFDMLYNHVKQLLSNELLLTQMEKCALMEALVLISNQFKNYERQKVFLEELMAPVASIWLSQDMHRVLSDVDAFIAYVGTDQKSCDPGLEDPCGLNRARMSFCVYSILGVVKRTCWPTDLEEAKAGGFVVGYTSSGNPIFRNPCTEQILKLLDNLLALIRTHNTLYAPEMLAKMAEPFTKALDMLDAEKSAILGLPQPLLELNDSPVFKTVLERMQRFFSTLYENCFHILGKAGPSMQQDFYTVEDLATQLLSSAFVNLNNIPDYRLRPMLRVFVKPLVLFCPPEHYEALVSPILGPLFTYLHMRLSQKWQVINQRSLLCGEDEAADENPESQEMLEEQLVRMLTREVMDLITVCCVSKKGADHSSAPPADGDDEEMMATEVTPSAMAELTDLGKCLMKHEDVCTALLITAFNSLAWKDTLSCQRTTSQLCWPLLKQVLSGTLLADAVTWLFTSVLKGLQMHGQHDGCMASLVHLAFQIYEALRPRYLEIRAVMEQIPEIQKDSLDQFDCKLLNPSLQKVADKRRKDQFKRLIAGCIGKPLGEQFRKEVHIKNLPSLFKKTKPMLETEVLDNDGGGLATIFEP

This is one part of the list.

Compound in the assay: CC1Cc2ccccc2N1C(=O)C1CCCN(C1)C(=O)CCl (mixture of isomers) [TRIM25 ligand 11 (diastereomer mixture)]
Put plainly: probe-labelled cysteine peptide fold change vs DMSO (competition) (log2 fold change); higher = less target engagement (more negative = stronger competition). Conditions: THP-1, incubation time: 4 h.
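Further: competitive chemoproteomic profiling in live THP-1 cells with an iodoacetamide desthiobiotin (IA-DTB) probe, comparing probe-labelled peptide intensities in compound-treated cells against DMSO-treated controls.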

Take “XPO6_Q96QU8_324_NCVPMEFEEYLLR (UniProt Q96QU8)”: the “probe-labelled cysteine peptide fold change” value runs as follows: (10 µM) 0.124; (50 µM) -0.0486.

For “YTHDC2_Q9H6S0_472_EMDACLSDIWLHK (UniProt Q9H6S0)”, the “probe-labelled cysteine peptide fold change” value is 0.0772 (10 µM) and 0.116 (50 µM).

Regarding “ZBTB14_O43829_391_PFVCGSCTK (UniProt O43829)”, the “probe-labelled cysteine peptide fold change” value is, setting by setting: (10 µM) 0.0479; (50 µM) 0.00623.

In the case of “ZBTB14_O43829_215_VNCYGQEVESMETPESK (UniProt O43829)”, the “probe-labelled cysteine peptide fold change” value was 0.0401 (10 µM) and -0.356 (50 µM).

Regarding “XRCC5_P13010_346_CFSVLGFCK (UniProt P13010)”, the “probe-labelled cysteine peptide fold change” value runs as follows: (10 µM) -0.0826; (50 µM) -0.0228.

Take “XPOT_O43592_522_FFTVEPQHIPCVLMAFLDHR (UniProt O43592)”: the “probe-labelled cysteine peptide fold change” value (10 µM) came out at 0.161 and the “probe-labelled cysteine peptide fold change” value (50 µM) is -0.0107.

On to “XPOT_O43592_56_FFCFQVLEHQVK (UniProt O43592)”, for which the “probe-labelled cysteine peptide fold change” value by setting is: (10 µM) 0.294; (50 µM) 0.235.

For the target XRN2_Q9H0D6_29_ECNGVK (UniProt Q9H0D6), the “probe-labelled cysteine peptide fold change” value was -0.0394 (10 µM) and -0.0726 (50 µM).

With “YTHDF2_Q9Y5A9_433_YNIWCSTEHGNK (UniProt Q9Y5A9)”, the “probe-labelled cysteine peptide fold change” value is 0.0356 (10 µM) and -0.0273 (50 µM).

Take “ZC3H13_Q5T200_42_LGPSTGSTAETQCR (UniProt Q5T200)”: the “probe-labelled cysteine peptide fold change” value is -0.11 (10 µM) and -0.144 (50 µM).

On to “XRN2_Q9H0D6_296_HDELADSLPCAEGEFIFLR (UniProt Q9H0D6)”, for which the “probe-labelled cysteine peptide fold change” value (10 µM) was 0.409 and the “probe-labelled cysteine peptide fold change” value (50 µM) is -0.0107.

Consider “XRN2_Q9H0D6_715_HHPLHDFILELYQTGSTEPVEVPPELCHGIQGK (UniProt Q9H0D6)”, for which the “probe-labelled cysteine peptide fold change” value (10 µM) was -0.0378 and the “probe-labelled cysteine peptide fold change” value (50 µM) is -0.0762.

As to “YRDC_Q86U90_256_FGIIRPGCALESTTAILQQK (UniProt Q86U90)”, the “probe-labelled cysteine peptide fold change” value runs as follows: (10 µM) 0.0417; (50 µM) 0.0046.

As for “ZCCHC10_Q8TBK6_58_CLEFGHWTYECTGK (UniProt Q8TBK6)”, the “probe-labelled cysteine peptide fold change” value stood at 0.0113 (10 µM) and 0.188 (50 µM).

Consider “ZC3HAV1L_Q96H79_99+102_GECQACDQLHFCR (UniProt Q96H79)”, for which the “probe-labelled cysteine peptide fold change” value is -0.0504 (10 µM) and -0.0965 (50 µM).

Take “YWHAH_Q04917_112_NCNDFQYESK (UniProt Q04917)”: the “probe-labelled cysteine peptide fold change” value runs as follows: (10 µM) -0.0341; (50 µM) 0.1.

In the case of “ZC3H11A_O75152_588_SVLTPLRGDVASCNTQVAEKPVLTAVPGITR (UniProt O75152)”, the “probe-labelled cysteine peptide fold change” value is -0.0522 (10 µM) and -0.241 (50 µM).

With “XRCC3_O43542_193_FGSQIFIEHVADVDTLLECVNK (UniProt O43542)”, the “probe-labelled cysteine peptide fold change” value runs as follows: (10 µM) -0.09; (50 µM) -0.159.

With “YWHAH_Q04917_97_ELETVCNDVLSLLDK (UniProt Q04917)”, the “probe-labelled cysteine peptide fold change” value by setting is: (10 µM) -0.1; (50 µM) -0.178.

Regarding “YTHDC2_Q9H6S0_788_LLAPVNCPIADFLMK (UniProt Q9H6S0)”, the “probe-labelled cysteine peptide fold change” value was -0.0385 (10 µM) and -0.147 (50 µM).

As for “YKT6_O15498_66_EQDYLCHVYVR (UniProt O15498)”, the “probe-labelled cysteine peptide fold change” value is 0.048 (10 µM) and 0.0716 (50 µM).

As to “YARS2_Q9Y2Z4_413_EAPFSEFFLDPGTSVLDTCR (UniProt Q9Y2Z4)”, the “probe-labelled cysteine peptide fold change” value (10 µM) came to 0.154 and the “probe-labelled cysteine peptide fold change” value (50 µM) amounted to 0.109.

As to “ZC3HAV1_Q7Z2W4_174_LHICDHFTR (UniProt Q7Z2W4)”, the “probe-labelled cysteine peptide fold change” value by setting is: (10 µM) 0.0051; (50 µM) 0.0954.

“ZC3HAV1L_Q96H79_99_GECQACDQLHFCR (UniProt Q96H79)”: the “probe-labelled cysteine peptide fold change” value (10 µM) is -0.0102 and the “probe-labelled cysteine peptide fold change” value (50 µM) was determined as 0.0725.

On to “ZC3HC1_Q86WB0_112_YGWVTVECDMLK (UniProt Q86WB0)”, for which the “probe-labelled cysteine peptide fold change” value was -0.0653 (10 µM) and -0.0077 (50 µM).

For the target “ZC3HAV1L_Q96H79_125_DCWSTCTLSHDIHTPVNMQVLK (UniProt Q96H79)”, the “probe-labelled cysteine peptide fold change” value is -0.175 (10 µM) and -0.126 (50 µM).

Consider “XPO1_O14980_34_LDINLLDNVVNCLYHGEGAQQR (UniProt O14980)”, for which the “probe-labelled cysteine peptide fold change” value reads like this: (10 µM) 0.0713; (50 µM) 0.0305.

As for “ZCCHC3_Q9NUD5_356+366_CGEEGHLSPYCR (UniProt Q9NUD5)”, the “probe-labelled cysteine peptide fold change” value reads like this: (10 µM) -0.0896; (50 µM) -0.148.

Regarding “ZFAND1_Q8TCF1_25_DFLPFVCDDCSGIFCLEHR (UniProt Q8TCF1)”, the “probe-labelled cysteine peptide fold change” value was determined as 0.0239 (10 µM) and 0.0278 (50 µM).

In the case of “XPO5_Q9HAV4_1025_HEDVCTALLITAFNSLAWK (UniProt Q9HAV4)”, the “probe-labelled cysteine peptide fold change” value came to 0.0361 (10 µM) and 0.123 (50 µM).

In the case of “XPO5_Q9HAV4_941_SLLCGEDEAADENPESQEMLEEQLVR (UniProt Q9HAV4)”, the “probe-labelled cysteine peptide fold change” value was -0.212 (10 µM) and -0.177 (50 µM).

Regarding “ZC3HAV1_Q7Z2W4_513_VDDHDSEEICLDHLCK (UniProt Q7Z2W4)”, the “probe-labelled cysteine peptide fold change” value runs as follows: (10 µM) 0.00414; (50 µM) -0.227.

“XPOT_O43592_650_QASLADCLNHAVGFASR (UniProt O43592)”: the “probe-labelled cysteine peptide fold change” value runs as follows: (10 µM) 0.0855; (50 µM) 0.048.

Consider “ZC3H7A_Q8IWR0_775_QMPLQFDLCNHIASGK (UniProt Q8IWR0)”, for which the “probe-labelled cysteine peptide fold change” value was -0.0964 (10 µM) and -0.0915 (50 µM).
